PubChem BioAssay AID686937 – Drosophila RNAi Screening Center | 2013

- Assay: 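Knock-downs that reduce output of a secreted reporter enzyme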 (primary screen)
- System: Drosophila S2 cells expressing secreted horseradish peroxidase
- Reagent: long dsRNA against Drosophila genes
- Duration: about 5.5 days (5 days dsRNA, then 12 h reporter induction)
- Challenge: reporter expression induced after 5 days of dsRNA, read 12 h later; inducer not stated
- Measured: 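Chemiluminescent measurement of peroxidase in the medium 12 h after reporter induction, following 5 days of dsRNA, given as a z-score per plate; higher means more secretion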
- Reading the numbers: z-score: higher = more reporter secreted into medium
In all, the deposit lists about 23,000 reagents; this is a random part of those that have a named target and a result. 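Reduced-secretion tags in replicate 1 do not always agree with the z-scores; no criterion for assigning the tags was given.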 Names joined by + are all predicted targets of the reagent. Not stated in the record: the amount of reagent.

no.	Gene	amplicon	z-score, replicate 1	z-score, replicate 2	z-score, replicate 3	z-score, replicate 4	phenotype, replicate 1
1	CG31612	DRSC03697	0.11	0.13	-0.16	0.28	
2	CG31612	DRSC03698	-0.1	0.33			
3	larp	DRSC14728	0.57	0.35			
4	larp	DRSC16984	0.02	-0.17			
5	larp	DRSC21856	0.28	0.18			
6	CG31676	DRSC02387	-0.64	0.06			
7	RabX6	DRSC08223	0.31	0.07			
8	CG15172	DRSC02473	0.28	0.25			
9	lft	DRSC02236	0.16	-0.11			
10	CG30196	DRSC04156	0.17	0.2			
11	Oat	DRSC11043	0.45	0.38			
12	Srp54	DRSC03442	-1.37	-0.35			
13	Cpr67Fb	DRSC10314	0.29	0.35			
14	CG9270	DRSC03182	0.42	0.35			
15	CG34310	DRSC00943	0.74	-0.03			
16	PIG-S	DRSC14643	0.19	0.16			
17	PIG-S	DRSC15388	0.26	0.14			
18	PIG-S	DRSC15952	0.08	0.17			
19	Cypl	DRSC08362	0.46	0.21			
20	mip130	DRSC18575	0.08	0.2			
21	PIG-H + Kmn2	DRSC12653	-1.82	-2			reduced secretion
22	CG34238	DRSC09040	0.2	0.32			
23	CG13510	DRSC04152	0.25	0.37			
24	CG2887	DRSC18235	0.25	0.14			
25	Unc-115a	DRSC12749	0.53	-0.08			
26	CG42680	DRSC01399	0.18	-0.01			
27	Mgat2	DRSC16347	0.4	0.33			
28	HemK2 + Snapin	DRSC00736	0.34	0.35			
29	HemK2 + Snapin	DRSC00737	0.24	0.11			
30	Hip14	DRSC10570	0.38	0.24			
31	f-cup	DRSC14139	-0.15	-0.04			
32	CG18011	DRSC06697	0.42	0.45			
33	CG18011	DRSC06706	0.48	0.41			
34	IKKbeta	DRSC16714	0.47	0.49			
35	CG7970	DRSC08605	0.03	0.24			
36	Srp68	DRSC10475	-1.63	-1.93			reduced secretion
37	CG43293	DRSC08797	-0.49	-0.44			
38	LSm7	DRSC02251	-0.12	-1.02			
39	Tango9	DRSC14173	-2.06	0.41			reduced secretion
40	TM9SF2	DRSC03197	0.3	-0.02			
41	mRRF2	DRSC16143	0.45	0.6			
42	dany	DRSC04141	-6.84	0.26			reduced secretion
43	Jon74E	DRSC10617	0.25	0.25			
44	Mayo	DRSC14300	0.37	0.24			
45	CG17163	DRSC20901	0.42	0.14			
46	CG14427	DRSC17921	0.13	0.62			
47	wat	DRSC14854	0.47	0.52			
48	CG10602	DRSC02075	0.41	0.26			
49	CG2336	DRSC12581	0.17	0.34			
50	Gr59b	DRSC04179	0.2	0.34			
51	CG32284	DRSC08025	0.47	0.1			
52	CCHa1-R	DRSC06456	0.12	0.33			
53	CCHa1-R	DRSC06715	0.08	0.29			
54	Rtca	DRSC18517	0.19	0.29			
55	Efhc1.1	DRSC20135	0.27	0.19			
56	CG5381	DRSC02852	0.61	0.27			
57	CG42307 + mus312	DRSC11008	0.43	0.36			
58	KdelR	DRSC03353	-1.61	-1.56			reduced secretion
59	ergic53	DRSC11389	0.06	0.19			
60	CG32176	DRSC10057	-0.25	0.13			
61	CG32176	DRSC10058	-0.25	0.03			
62	CG14253	DRSC14748	0.36	0.37			
63	ND-51	DRSC03145	-0.09	-0.32			
64	fs(1)M3	DRSC18381	0.46	0.41			

Continued, starting with the last 5 of the part before.
no.	Gene	amplicon	z-score, replicate 1	z-score, replicate 2	z-score, replicate 3	z-score, replicate 4	phenotype, replicate 1
60	CG32176	DRSC10057	-0.25	0.13			
61	CG32176	DRSC10058	-0.25	0.03			
62	CG14253	DRSC14748	0.36	0.37			
63	ND-51	DRSC03145	-0.09	-0.32			
64	fs(1)M3	DRSC18381	0.46	0.41			
65	CG43058	DRSC05434	-0.51	0.07			
66	CheB53b	DRSC05613	0.83	0.41			
67	CG33771	DRSC11718	-0.65	0.02			
68	CG14715	DRSC14938	0.01	0.11			
69	Adgf-B	DRSC10568	0.15	0.22			
70	CG14795	DRSC18513	-1.44	0.32			
71	trbd	DRSC16494	0.22	0.17			
72	CREG	DRSC16595	0.42	0.25			
73	CG17167	DRSC20902	0.31	-0.27			
74	CG17167	DRSC20903	-0.23	-0.58			
75	ACXB	DRSC00845	-1.71	-0.83			reduced secretion
76	mav	DRSC17149	0.32	0.38			
77	Cad88C	DRSC15486	0.16	0.51			
78	mys	DRSC18799	0.49	0.82			
79	CG15822	DRSC08482	-0.1	0.01			
80	CG15822	DRSC08483	0.22	0.22			
81	Poc1	DRSC09713	0.16	0.21			
82	CG32544	DRSC20033	0.33	0.37			
83	Fer3HCH	DRSC19892	0.24	0.24			
84	prage	DRSC17957	-0.09	0.14			
85	prage	DRSC17958	-1.74	-2.02			reduced secretion
86	prage	DRSC18490	0.42	0.45			
87	prage	DRSC18497	0.13	0.38			
88	Miro	DRSC15795	0.54	0.47			
89	asrij	DRSC04175	0.34	0.24			
90	Set	DRSC16861	0.36	0.54			
91	Prosbeta1	DRSC07159	-5.97	-5.38			reduced secretion
92	ed	DRSC00350	0.37	0.48			
93	ed	DRSC00438	0.33	0.25			
94	ed	DRSC00439	0.35	0.32			
95	ed	DRSC00478	0.16	0.3			
96	CG5674	DRSC02874	-1.77	-0.93			reduced secretion
97	Zasp52	DRSC06269	-2.11	-0.77			reduced secretion
98	Zasp52	DRSC07121	0.27	-0.03			
99	CG13062	DRSC09945	0.06	0.22			
100	aPKC	DRSC05515	0.26	0.15			
101	aPKC	DRSC07639	-0.05	-0.01			
102	Cp18	DRSC11120	0.13	0.12			
103	ana2	DRSC05952	0.3	0.36			
104	CG11663	DRSC17793	0.11	-0.21			
